# In the supplement of paper PMC7661543:
# ± gives the standard deviation of the averaged measurements. Differences between knockout arms are mostly noise.
# Test system: SKBR3
# Test: relative cell number vs DMSO control (72 h) (% of DMSO); higher = less growth inhibition (more cells)
# Protocol: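 QMAP-Seq: a pool of 5 breast cancer cell lines (ZR-75-1, SKBR3, HCC-38, MDA-MB-231, BT-20), each carrying 12 doxycycline-inducible Cas9 sgRNA perturbations (11 knockouts plus non-targeting sgNT), was treated with compounds for 72 h at four 10-fold doses (10 nM-10 uM or 1 nM-1 uM range). Barcodes were amplified and sequenced, and cell number was interpolated from 293T spike-in standard curves. The result is expressed as % of the median of DMSO wells. Two biological replicates.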
# [1] = sgRNA knockout: sgATF3, 1000 nM
# [2] = sgRNA knockout: sgATF4, 1000 nM
# [3] = sgRNA knockout: sgATF6, 1000 nM
# [4] = sgRNA knockout: sgATG7, 1000 nM
# [5] = sgRNA knockout: sgERN1, 1000 nM
# [6] = sgRNA knockout: sgHSF1, 1000 nM
# [7] = sgRNA knockout: sgHSF2, 1000 nM
# [8] = sgRNA knockout: sgKEAP1, 100 nM
# [9] = sgRNA knockout: sgKEAP1, 1000 nM
# [10] = sgRNA knockout: sgNFE2L2, 10 nM
# [11] = sgRNA knockout: sgNFE2L2, 100 nM
# [12] = sgRNA knockout: sgNFE2L2, 1000 nM
# [13] = sgRNA knockout: sgSLC35F2, 10 nM
# [14] = sgRNA knockout: sgSLC35F2, 100 nM
# [15] = sgRNA knockout: sgSLC35F2, 1000 nM
# [16] = sgRNA knockout: sgXBP1, 1000 nM
# [17] = sgRNA knockout: sgATF3, 10000 nM
# [18] = sgRNA knockout: sgATF4, 10000 nM
# [19] = sgRNA knockout: sgATF6, 10000 nM
# [20] = sgRNA knockout: sgATG7, 10000 nM
# [21] = sgRNA knockout: sgERN1, 10000 nM
# [22] = sgRNA knockout: sgHSF1, 10000 nM
# [23] = sgRNA knockout: sgHSF2, 10000 nM
# [24] = sgRNA knockout: sgKEAP1, 10000 nM
# [25] = sgRNA knockout: sgNFE2L2, 10000 nM
# [26] = sgRNA knockout: sgSLC35F2, 10000 nM
# [27] = sgRNA knockout: sgXBP1, 10000 nM
compound,measurement,setting,value
C[C@]12CC[C@H](O)CC1=CC[C@@H]1[C@@H]2CC[C@]2(C)C(c3cccnc3)=CC[C@@H]12 [Abiraterone],relative cell number,"sgRNA knockout: sgATF3, 1 nM",131 ± 29
same,relative cell number,"sgRNA knockout: sgATF3, 10 nM",111 ± 3.8
same,relative cell number,"sgRNA knockout: sgATF3, 100 nM",139 ± 18
same,relative cell number,[1],84 ± 12
same,relative cell number,"sgRNA knockout: sgATF4, 1 nM",104 ± 8.8
same,relative cell number,"sgRNA knockout: sgATF4, 10 nM",106 ± 22
same,relative cell number,"sgRNA knockout: sgATF4, 100 nM",99.9 ± 9
same,relative cell number,[2],94.3 ± 15
same,relative cell number,"sgRNA knockout: sgATF6, 1 nM",92.3 ± 20
same,relative cell number,"sgRNA knockout: sgATF6, 10 nM",99.2 ± 10
same,relative cell number,"sgRNA knockout: sgATF6, 100 nM",105 ± 4.6
same,relative cell number,[3],105 ± 3.7
same,relative cell number,"sgRNA knockout: sgATG7, 1 nM",102 ± 11
same,relative cell number,"sgRNA knockout: sgATG7, 10 nM",125 ± 19
same,relative cell number,"sgRNA knockout: sgATG7, 100 nM",104 ± 8.7
same,relative cell number,[4],117 ± 17
same,relative cell number,"sgRNA knockout: sgERN1, 1 nM",108 ± 12
same,relative cell number,"sgRNA knockout: sgERN1, 10 nM",122 ± 37
same,relative cell number,"sgRNA knockout: sgERN1, 100 nM",123 ± 16
same,relative cell number,[5],112 ± 8.4
same,relative cell number,"sgRNA knockout: sgHSF1, 1 nM",94.1 ± 2.1
same,relative cell number,"sgRNA knockout: sgHSF1, 10 nM",103 ± 11
same,relative cell number,"sgRNA knockout: sgHSF1, 100 nM",92.8 ± 18
same,relative cell number,[6],101 ± 15
same,relative cell number,"sgRNA knockout: sgHSF2, 1 nM",100 ± 2.4
same,relative cell number,"sgRNA knockout: sgHSF2, 10 nM",118 ± 18
same,relative cell number,"sgRNA knockout: sgHSF2, 100 nM",97.7 ± 6.5
same,relative cell number,[7],93.7 ± 29
same,relative cell number,"sgRNA knockout: sgKEAP1, 1 nM",111 ± 22
same,relative cell number,"sgRNA knockout: sgKEAP1, 10 nM",111 ± 2.6
same,relative cell number,[8],104 ± 1.6
same,relative cell number,[9],107 ± 1.6
same,relative cell number,"sgRNA knockout: sgNFE2L2, 1 nM",111 ± 22
same,relative cell number,[10],117 ± 9.4
same,relative cell number,[11],105 ± 5.4
same,relative cell number,[12],103 ± 16
same,relative cell number,"sgRNA knockout: sgSLC35F2, 1 nM",109 ± 2.8
same,relative cell number,[13],90.8 ± 2.5
same,relative cell number,[14],102 ± 7.7
same,relative cell number,[15],85 ± 20
same,relative cell number,"sgRNA knockout: sgXBP1, 1 nM",124 ± 44
same,relative cell number,"sgRNA knockout: sgXBP1, 10 nM",118 ± 9.4
same,relative cell number,"sgRNA knockout: sgXBP1, 100 nM",128 ± 22
same,relative cell number,[16],95.4 ± 5.5
Cc1cc(N2CCOCC2)cc2[nH]c(-c3c(NC[C@@H](O)c4cccc(Cl)c4)cc[nH]c3=O)nc12,relative cell number,"sgRNA knockout: sgATF3, 10 nM",109 ± 2.4
same,relative cell number,"sgRNA knockout: sgATF3, 100 nM",80.27 ± 0.13
same,relative cell number,[1],89.7 ± 1.9
same,relative cell number,[17],63.6 ± 22
same,relative cell number,"sgRNA knockout: sgATF4, 10 nM",82.7 ± 0.99
same,relative cell number,"sgRNA knockout: sgATF4, 100 nM",85 ± 1.1
same,relative cell number,[2],104 ± 18
same,relative cell number,[18],52.4 ± 13
same,relative cell number,"sgRNA knockout: sgATF6, 10 nM",97.2 ± 20
same,relative cell number,"sgRNA knockout: sgATF6, 100 nM",72.1 ± 14
same,relative cell number,[3],94.5 ± 5.9
same,relative cell number,[19],44.9 ± 5.3
same,relative cell number,"sgRNA knockout: sgATG7, 10 nM",87.9 ± 19
same,relative cell number,"sgRNA knockout: sgATG7, 100 nM",87.4 ± 5.9
same,relative cell number,[4],83.25 ± 0.62
same,relative cell number,[20],57.7 ± 15
same,relative cell number,"sgRNA knockout: sgERN1, 10 nM",104 ± 4
same,relative cell number,"sgRNA knockout: sgERN1, 100 nM",103 ± 19
same,relative cell number,[5],101 ± 6.3
same,relative cell number,[21],62 ± 21
same,relative cell number,"sgRNA knockout: sgHSF1, 10 nM",86.9 ± 10
same,relative cell number,"sgRNA knockout: sgHSF1, 100 nM",66.4 ± 14
same,relative cell number,[6],86.7 ± 4
same,relative cell number,[22],54.2 ± 2.2
same,relative cell number,"sgRNA knockout: sgHSF2, 10 nM",95.4 ± 9.3
same,relative cell number,"sgRNA knockout: sgHSF2, 100 nM",71 ± 12
same,relative cell number,[7],103 ± 23
same,relative cell number,[23],56.5 ± 2.7
same,relative cell number,"sgRNA knockout: sgKEAP1, 10 nM",72.4 ± 6.6
same,relative cell number,[8],71.3 ± 4.2
same,relative cell number,[9],94.3 ± 16
same,relative cell number,[24],52.3 ± 2.1
same,relative cell number,[10],80.1 ± 10
same,relative cell number,[11],76.8 ± 1.1
same,relative cell number,[12],112 ± 27
same,relative cell number,[25],60.4 ± 4.3
same,relative cell number,[13],87 ± 8.7
same,relative cell number,[14],67.5 ± 11
same,relative cell number,[15],66.2 ± 11
same,relative cell number,[26],62.8 ± 0.74
same,relative cell number,"sgRNA knockout: sgXBP1, 10 nM",88.4 ± 12
same,relative cell number,"sgRNA knockout: sgXBP1, 100 nM",69.3 ± 5.2
same,relative cell number,[16],101 ± 9.8
same,relative cell number,[27],56.4 ± 8.4
O=C(Nc1ccc([N+](=O)[O-])cc1Cl)c1cc(Cl)ccc1O [Niclosamide],relative cell number,"sgRNA knockout: sgATF3, 10 nM",84.1 ± 7.3
same,relative cell number,"sgRNA knockout: sgATF3, 100 nM",78.9 ± 11
same,relative cell number,[1],116 ± 36
same,relative cell number,[17],66.2 ± 2.3
same,relative cell number,"sgRNA knockout: sgATF4, 10 nM",89.8 ± 14
same,relative cell number,"sgRNA knockout: sgATF4, 100 nM",79.1 ± 3.4
same,relative cell number,[2],101 ± 7
same,relative cell number,[18],40.3 ± 6.4
same,relative cell number,"sgRNA knockout: sgATF6, 10 nM",96.4 ± 15
same,relative cell number,"sgRNA knockout: sgATF6, 100 nM",79.4 ± 16
same,relative cell number,[3],104 ± 12
same,relative cell number,[19],58 ± 2
same,relative cell number,"sgRNA knockout: sgATG7, 10 nM",105 ± 14
same,relative cell number,"sgRNA knockout: sgATG7, 100 nM",97.7 ± 6.1
same,relative cell number,[4],120 ± 2.5
same,relative cell number,[20],54.8 ± 8.5
same,relative cell number,"sgRNA knockout: sgERN1, 10 nM",83.5 ± 3.5
same,relative cell number,"sgRNA knockout: sgERN1, 100 nM",100 ± 3
same,relative cell number,[5],131 ± 8
same,relative cell number,[21],62.2 ± 12
same,relative cell number,"sgRNA knockout: sgHSF1, 10 nM",103 ± 2.8
same,relative cell number,"sgRNA knockout: sgHSF1, 100 nM",86 ± 17
same,relative cell number,[6],100 ± 30
same,relative cell number,[22],54.8 ± 7.2
same,relative cell number,"sgRNA knockout: sgHSF2, 10 nM",80.1 ± 8.3
same,relative cell number,"sgRNA knockout: sgHSF2, 100 nM",89.1 ± 17
same,relative cell number,[7],102 ± 35
same,relative cell number,[23],47.6 ± 2.6
same,relative cell number,"sgRNA knockout: sgKEAP1, 10 nM",78.3 ± 7.2
same,relative cell number,[8],99.54 ± 0.85
same,relative cell number,[9],105 ± 24
same,relative cell number,[24],58.237 ± 0.029
same,relative cell number,[10],89.1 ± 7.2
same,relative cell number,[11],98.2 ± 3.3
same,relative cell number,[12],105 ± 7.2
same,relative cell number,[25],48.1 ± 2.4
same,relative cell number,[13],95.4 ± 35
same,relative cell number,[14],71.1 ± 14
same,relative cell number,[15],116 ± 3.8
same,relative cell number,[26],57.4 ± 6.2
same,relative cell number,"sgRNA knockout: sgXBP1, 10 nM",80.5 ± 1.5
same,relative cell number,"sgRNA knockout: sgXBP1, 100 nM",85.1 ± 8.2
same,relative cell number,[16],118 ± 5.6
same,relative cell number,[27],54.4 ± 2.4

# 6 entries picked at random from those above, as already listed:
compound,measurement,setting,value
O=C(Nc1ccc([N+](=O)[O-])cc1Cl)c1cc(Cl)ccc1O [Niclosamide],relative cell number,[10],89.1 ± 7.2
Cc1cc(N2CCOCC2)cc2[nH]c(-c3c(NC[C@@H](O)c4cccc(Cl)c4)cc[nH]c3=O)nc12,relative cell number,[13],87 ± 8.7
C[C@]12CC[C@H](O)CC1=CC[C@@H]1[C@@H]2CC[C@]2(C)C(c3cccnc3)=CC[C@@H]12 [Abiraterone],relative cell number,[1],84 ± 12
same,relative cell number,[4],117 ± 17
O=C(Nc1ccc([N+](=O)[O-])cc1Cl)c1cc(Cl)ccc1O [Niclosamide],relative cell number,"sgRNA knockout: sgATF6, 10 nM",96.4 ± 15
same,relative cell number,"sgRNA knockout: sgXBP1, 100 nM",85.1 ± 8.2

# Given tab-delimited: entries from further up
compound	measurement	setting	value
C[C@]12CC[C@H](O)CC1=CC[C@@H]1[C@@H]2CC[C@]2(C)C(c3cccnc3)=CC[C@@H]12 [Abiraterone]	relative cell number	sgRNA knockout: sgSLC35F2, 1 nM	109 ± 2.8
O=C(Nc1ccc([N+](=O)[O-])cc1Cl)c1cc(Cl)ccc1O [Niclosamide]	relative cell number	[15]	116 ± 3.8
